Source: article PMC6370788
Results are given in words; binding and its absence hold for the method and conditions named. Binding seen in cells or lysates may run through a third protein. Some entries that bind do so weakly or less than the wild type.

Amino acid sequences for entries named in this document (tags omitted).
UniProt Q9Y3D0: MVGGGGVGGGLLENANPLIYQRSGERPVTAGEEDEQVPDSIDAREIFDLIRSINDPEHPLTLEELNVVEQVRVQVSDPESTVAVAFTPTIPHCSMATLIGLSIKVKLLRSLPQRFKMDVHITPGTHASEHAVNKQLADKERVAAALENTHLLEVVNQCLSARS

Biological target: MIP18/Fam96B/CIA2B, endogenous in HeLa cells (human (endogenous in HeLa)) (UniProt Q9Y3D0)
Experiment: co-IP; Pierce Direct IP kit, anti-Ccdc117 or anti-CIA2B antibody coupled to the resin; 700 ug total protein of cycling native HeLa cell extract per column; 4 °C overnight; eluates analysed by Western blot

B1: Ccdc117, endogenous in HeLa cells (protein, UniProt Q8IWD4 1-279)
chain: MAALGRPFSGLPLSGGSDFLQPPQPAFPGRAFPPGADGAELAPRPGPRAVPSSPAGSAARGRVSVHCKKKHKREEEEDDDCPVRKKRITEAELCAGPNDWILCAHQDVEGHGVNPSVSGLSIPGILDVICEEMDQTTGEPQCEVARRKLQEIEDRIIDEDEEVEADRNVNHLPSLVLSDTMKTGLKREFDEVFTKKMIESMSRPSMELVLWKPLPELLSDKPKPSSNTKNYTGESQAKHVAAGTAFPQRTELFSEPRPTGMSLYNSLETATSTEEEMEL
B1 was tested, and the binding was “binds”.
